No constants are given. Whether binding was seen depends on the method and setting. Binding seen in cells or lysates may run through a third protein. Some binding calls cover weakened binding; strength is not graded here.
Legend:
Experiment in all cases: FRET or BRET; living HEK293T cells co-transfected with WT or variant OXTR-GFP10 and β-arrestin-1-Rluc8 or β-arrestin-2-Rluc8 (15:1 w/w); oxytocin dose-response; 10 μM coelenterazine 400a in HBSS with 20 mM HEPES; BRET ratio 520 nm/400 nm averaged over 78-182 s; normalised to WT at the highest oxytocin concentration
V45L OXTR-GFP10 (human) = V45L OXTR-GFP10 (human) (UniProt P30559)
L206V OXTR-GFP10 (human) = L206V OXTR-GFP10 (human) (UniProt P30559)
R376G OXTR-GFP10 (human) = R376G OXTR-GFP10 (human) (UniProt P30559)
P108A OXTR-GFP10 (human) = P108A OXTR-GFP10 (human) (UniProt P30559)
[1] = target: wild-type (WT) OXTR-GFP10 fusion (oxytocin receptor) (human) (UniProt P30559)
E339K OXTR-GFP10 (human) = E339K OXTR-GFP10 (human) (UniProt P30559)
V281M OXTR-GFP10 (human) = V281M OXTR-GFP10 (human) (UniProt P30559)

Protein sequences, listed by entry. Tags and fused reporters are not part of them. Lines headed by an entry give the natural chain unless they say otherwise; changes in a name come on top.
UniProt P30559: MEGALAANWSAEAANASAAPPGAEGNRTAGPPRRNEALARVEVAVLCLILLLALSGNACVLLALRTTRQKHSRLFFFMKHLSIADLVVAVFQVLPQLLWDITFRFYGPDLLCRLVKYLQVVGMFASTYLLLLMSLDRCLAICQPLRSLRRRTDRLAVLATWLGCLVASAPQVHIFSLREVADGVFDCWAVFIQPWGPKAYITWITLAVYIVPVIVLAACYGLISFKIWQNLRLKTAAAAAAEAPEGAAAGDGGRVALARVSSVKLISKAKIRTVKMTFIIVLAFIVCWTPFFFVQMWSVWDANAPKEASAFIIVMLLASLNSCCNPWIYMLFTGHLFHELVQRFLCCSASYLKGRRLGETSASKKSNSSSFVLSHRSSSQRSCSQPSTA
UniProt P49407: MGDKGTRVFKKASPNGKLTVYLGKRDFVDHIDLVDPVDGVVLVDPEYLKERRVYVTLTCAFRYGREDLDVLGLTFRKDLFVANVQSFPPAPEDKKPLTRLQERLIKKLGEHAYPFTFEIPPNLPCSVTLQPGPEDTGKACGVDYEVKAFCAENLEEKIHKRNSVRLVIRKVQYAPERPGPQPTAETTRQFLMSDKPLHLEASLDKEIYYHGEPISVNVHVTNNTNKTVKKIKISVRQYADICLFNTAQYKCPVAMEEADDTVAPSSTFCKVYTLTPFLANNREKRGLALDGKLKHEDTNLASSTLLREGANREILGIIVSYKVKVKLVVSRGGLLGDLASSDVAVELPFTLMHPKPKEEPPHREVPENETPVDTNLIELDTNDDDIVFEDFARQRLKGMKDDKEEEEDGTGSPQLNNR

Measured: binding

β-arrestin-1-Rluc8 fusion (from UniProt P49407 1-418)
binds: V45L OXTR-GFP10 (human) | L206V OXTR-GFP10 (human) | R376G OXTR-GFP10 (human) | P108A OXTR-GFP10 (human) | [1] | E339K OXTR-GFP10 (human) | V281M OXTR-GFP10 (human)

β-arrestin-2-Rluc8 fusion (from UniProt P32121 1-409)
binds: V45L OXTR-GFP10 (human) | L206V OXTR-GFP10 (human) | R376G OXTR-GFP10 (human) | P108A OXTR-GFP10 (human) | [1] | E339K OXTR-GFP10 (human) | V281M OXTR-GFP10 (human)
